# Results as given in patent US7781402B2, “Methods and implantable devices for treating supraventricular arrhythmias” (Closed Loop Therapies Ltd., priority 2004, dated 2010).
# For at least one compound, name, drawing or mass did not settle the structure.
# Experiments:
# atrial fibrillation = assay: Termination of induced atrial fibrillation in anesthetized Wistar rats (ECG); type: in vivo; conditions: bolus injection in the right ventricular cavity, n=10
# Excerpt: (§1) Induction of atrial tachycardia, atrial fibrillation and atrial flutter in rats—Wistar rats of either sex weighing 450-550 g were used in this study. Rats were anesthetized and atrial tachycardia, atrial fibrillation, or atrial flutter were induced by cardiac stimulation using a programmable stimulator with an isolated constant-current source. Stimuli of rectangular pulses of 2 milliseconds (ms) duration at three times diastolic threshold were delivered via transesophageal bipolar catheter positioned optimally to stimulate the atria. Double and triple extra stimulation techniques or a minimal coupling interval of 10 ms were performed in an attempt to induce atrial arrhythmias. Atrial burst pacing at intervals of 40 to 80 ms was also performed to induce atrial arrhythmias.
# (§2) Electrocardiogram (ECG) recording—The surface six-lead ECG was continuously recorded from subcutaneous 25-gauge electrodes in each limb of the animal. The ECG channels were amplified (0.1-0.5 mV/cm) and filtered between 0.5-250 Hz. The ECG variables were calculated according to standard criteria.
# (§3) Rapidly hydrolysable cholinergic receptor agonists (RHCA)—The RHCA were injected either through the tail vein or directly into the right ventricular cavity of rats with induced atrial fibrillation, atrial flutter or atrial tachycardia. The RHCA used in the present study was acetylcholine (ACh). […]
# atrial flutter [1] = conditions: 2 μg/minute into a 29-45 kg body weight; cited from earlier work
# [2] = test system: rat atrial cells / ventricular cells; conditions: in vitro, rat myocardial cells; cited from earlier work
# atrial flutter [3] = assay: Termination of induced atrial flutter in anesthetized Wistar rats (ECG); type: in vivo
# Excerpt: as §1, §2, §3
# atrial tachycardia = assay: Termination of induced atrial tachycardia in anesthetized Wistar rats (ECG); type: in vivo
# Protocol: The effect of rapidly hydrolysable cholinergic receptor agonists (RHCA) on supraventricular arrhythmia was tested in anesthetized Wistar rats, as follows.
# as §1
# as §2, with “criteria. […]” for “criteria.”
structure (smiles),measurement,setting,value
CC(=O)OCC[N+](C)(C)C [acetylcholine],atrial fibrillation episode duration (FIG. 4 legend),atrial fibrillation,terminated the arrhythmia within few seconds
same,effect of continuous infusion on atrial flutter parameters,atrial flutter [1],"reverses the effect of the antiarrhythmic drug d,1-sotalol, shortens the effective refractory period and the length of the atrial flutter cycle and increases the excitable gap duration"
same,concentration causing nearly maximal effects in rat atrial cells with no effect on electrical properties and inotropy of ventricular cells,[2],10^−9 to 3×10^−8 M
same,rats converted to sinus rhythm,atrial flutter [3]; 0.02-0.2 mg/kg into the right ventricle,all eight rats tested were converted to sinus rhythm
same,rats converted to sinus rhythm,atrial flutter [3]; 0.02-0.3 mg/kg via tail vein,All nine rats tested were converted to sinus rhythm
same,rats converted to sinus rhythm,atrial tachycardia; 0.02-0.2 mg/kg via tail vein,All ten rats tested were successfully converted to sinus rhythm
same,rats converted to sinus rhythm,atrial tachycardia; 0.02-0.4 mg/kg into the right ventricle,All twelve rats tested were successfully converted to sinus rhythm
